# In publication PMC12310199:
# Chains of the proteins cited; added tags and fusions are not shown.
# UniProt P61289: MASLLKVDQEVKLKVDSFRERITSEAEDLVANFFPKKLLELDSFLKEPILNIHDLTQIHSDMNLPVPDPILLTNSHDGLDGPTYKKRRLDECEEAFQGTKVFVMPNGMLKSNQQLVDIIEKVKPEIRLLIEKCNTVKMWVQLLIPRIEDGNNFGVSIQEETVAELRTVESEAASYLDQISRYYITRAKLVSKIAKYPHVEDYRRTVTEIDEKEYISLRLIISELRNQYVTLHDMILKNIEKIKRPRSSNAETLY
# Results are given in words; binding and its absence hold for the method and conditions named. In cells and extracts the contact can be indirect. Some entries that bind do so weakly or less than the wild type.
# What was measured:
# [1] = target: Flag-C1QBP 1-167 (UniProt Q07021); test: pull-down; 293T cells transfected with Myc-PA28γ and Flag-C1QBP (full length or truncations) for 36 hr; called pull-down by the paper, the appendix describes only an immunoprecipitation protocol
# [2] = target: Flag-C1QBP, full length (UniProt Q07021); test: as above
# [3] = target: Flag-C1QBP-G78N (UniProt Q07021); test: co-IP; 293T cells transfected with Flag-C1QBP wild-type or mutations (T76A and G78N) for 48 hr
# [4] = target: Flag-C1QBP, full length (UniProt Q07021); test: as above
# [5] = target: Flag-C1QBP-T76A (UniProt Q07021); test: as above
# [6] = target: Complement 1q binding protein (C1QBP), endogenous (human (endogenous in HSC-3 and UM1)) (UniProt Q07021); test: co-IP; endogenous proteins in HSC-3 cells; lysis in 1% NP-40 with protease inhibitors, antibody at 4°C overnight, protein G agarose, western blot
# [7] = target: Complement 1q binding protein (C1QBP), endogenous (human (endogenous in HSC-3 and UM1)) (UniProt Q07021); test: proximity ligation; Duolink PLA kit in UM1 cells with antibodies to PA28γ and C1QBP; signal in cytoplasm and nucleus
substance,measurement,setting,value
Myc-PA28γ (from UniProt P61289 1-254),binding,[1],binds
same,binding,[2],binds
PA28γ in 293T cells (co-immunoprecipitation of Figure 1J) (from UniProt P61289 1-254),binding,[3],binds
same,binding,[4],binds
same,binding,[5],binds
"Proteasome activator 28γ (PA28γ), endogenous (from UniProt P61289 1-254)",binding,[6],binds
same,binding,[7],binds
